{"source": "paper doi:10.64898/2025.12.28.696746", "target": "T1, Bdf1 (S. pombe) (UniProt Q9Y7N0)", "T1 sequence": "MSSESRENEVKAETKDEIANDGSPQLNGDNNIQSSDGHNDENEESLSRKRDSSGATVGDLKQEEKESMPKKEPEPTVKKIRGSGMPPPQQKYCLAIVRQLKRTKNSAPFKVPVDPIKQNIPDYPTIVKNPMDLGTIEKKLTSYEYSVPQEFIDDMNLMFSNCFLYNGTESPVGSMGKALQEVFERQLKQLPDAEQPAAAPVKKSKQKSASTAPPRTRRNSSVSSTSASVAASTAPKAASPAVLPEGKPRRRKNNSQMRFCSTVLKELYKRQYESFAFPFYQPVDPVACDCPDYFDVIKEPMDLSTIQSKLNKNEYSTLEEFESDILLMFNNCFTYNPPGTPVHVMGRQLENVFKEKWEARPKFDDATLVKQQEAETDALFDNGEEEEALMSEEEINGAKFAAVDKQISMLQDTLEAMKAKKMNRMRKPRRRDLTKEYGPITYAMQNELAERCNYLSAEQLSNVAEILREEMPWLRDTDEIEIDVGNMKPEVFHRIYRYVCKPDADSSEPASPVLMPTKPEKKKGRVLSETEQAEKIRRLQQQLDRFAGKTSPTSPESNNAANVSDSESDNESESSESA", "test": "two-hybrid; Matchmaker Gold Yeast Two-Hybrid System (Clontech); bait and prey co-expressed, selected on SD/-Leu/-Trp, spotted on SD/-Leu/-Trp/-His/-Ade (HIS3 and ADE2 reporters), 30°C, 2-4 days", "note": "These are yes or no findings as the source states them, for the method shown.", "data": [{"substance": "C-terminal fragment of Tdk203 (Tdk203C, 214–342) (S. cryophilus) (domain or fragment)", "values": [{"measurement": "binding", "result": "no binding"}]}, {"substance": "C-terminal fragment of Tdk210 (Tdk210C, 104–234) (S. cryophilus) (domain or fragment)", "values": [{"measurement": "binding", "result": "no binding"}]}]}
